Earlier results on one compound are cited in patent US20230218693A1, “HEMP SPROUT PRODUCTS AND METHODS FOR PRODUCING SAME” (priority 2020, published 2023).

Each structure is given as a SMILES string.

This data set concerns freshly isolated human blood cells. To be noted: Cell viability; 3 μM.

Take `CN[C@@H]1C[C@H]2O[C@@](C)([C@@H]1OC)n1c3ccccc3c3c4c(c5c6ccccc6n2c5c31)C(=O)NC4` [staurosporine, reference compound]: the “Reference control, % inhibition at indic. conc.” value was “staurosporine (3 μM), 80 ± 5%”.
